{"source": "PubChem BioAssay AID540303", "about": "(National Center for Advancing Translational Sciences (NCATS), 2011)", "note": "Out of some 330,000 compounds screened, about 1,000 (0.3%) were called active. The shares of active, inactive and inconclusive entries below differ from those in the screen. Calls come from the whole dose curve; as a rule, active = well fitted inhibition curve with a large enough effect; inconclusive = small, poorly fitted or top-dose-only effect; inactive = no such curve, though single readings can be large or run the other way; tested in mouse RAW 264.7 cells. Potencies of inconclusive entries are doubtful fits and often do not repeat. % is set by controls: 0 for no effect and ±100 for the full control effect; potency is the fitted concentration of half-maximal effect."}
{"test": "qHTS for Inhibitors of Cell Surface uPA Generation; note: nearly all actives have a fitted effect of over 55% in size", "conditions": "cell surface uPA generation assay; series mostly up to 38.3 µM; activity change, negative = inhibition: at the top concentration", "outline": "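RAW 264.7 cells (4000/well) were plated overnight at 37 C and then given compounds in a 1:5 series (up to 38.3 uM final) plus reagent for 24 h. Intracellular ATP was measured by ATP-Lite luminescence and stays elevated when uPA-dependent LF entry is blocked.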"}
{"smiles": "CCC(C)(C)C(=O)O[C@H]1C[C@@H](C)C=C2C=C[C@H](C)[C@H](CC[C@@H]3C[C@@H](O)CC(=O)O3)[C@H]21", "Potency": "inconclusive: 3.16 µM [inhibitor, partial curve, poor fit]"}
{"smiles": "O=S(=O)(c1ccccc1)N1N=C(c2ccc(O)cc2)CC1c1ccco1", "note": "(stereo unspecified)", "Potency": "inconclusive: 2.82 µM [inhibitor, partial curve, poor fit]"}
{"smiles": "COc1cc(C2NC(=O)NC(C)=C2C(C)=O)ccc1O", "note": "(stereo unspecified)", "activity change, negative = inhibition": "inactive: 0.321%"}
{"smiles": "CC(Oc1ccccc1)C(=O)Nc1nnc(S(=O)(=O)N2CCCCCC2)s1", "note": "(stereo unspecified)", "activity change, negative = inhibition": "inactive: 14.1%"}
{"smiles": "O=C(Cn1c(=O)cnc2ccccc21)Nc1cccc(S(=O)(=O)N2CCCCC2)c1", "Potency": "inconclusive: 3.55 µM [inhibitor, partial curve, poor fit]"}
{"smiles": "Cc1ccc(NC(=O)c2ccc(COc3ccccc3[N+](=O)[O-])o2)nc1", "Potency": "inconclusive: 2.51 µM [inhibitor, partial curve]"}
{"smiles": "N/C(=N\\OC(=O)c1cccnc1)c1ccccc1Cl", "Potency": "inconclusive: 10 µM [inhibitor, partial curve, poor fit]"}
{"smiles": "COc1ccc(OC)c(C2=CC(=O)C[C@H](c3ccc4c(c3)OCO4)C2)c1", "Potency": "inconclusive: 4.47 µM [inhibitor, partial curve]"}
{"smiles": "Cc1ccc(-n2c(-c3ccc(Cl)cc3)c[n+]3c2CCC3)cc1", "Potency": "inconclusive: 8.91 µM [inhibitor, partial curve, poor fit]"}
{"smiles": "O=[N+]([O-])/C=C/c1ccc2c(ccn2Cc2ccccc2)c1", "Potency": "inconclusive: 8.91 µM [inhibitor, partial curve, poor fit]"}
{"smiles": "Cc1cc(NC(=O)CSc2nnc(-c3ccncc3)n2N)ccc1Br", "activity change, negative = inhibition": "inactive: -2.77%"}
{"smiles": "COc1cc(O)c(C(=O)/C=C/c2ccccc2)c(OC)c1", "Potency": "active: 8.91 µM"}
{"smiles": "CC(=O)Nc1ccc(C(=O)CN2C(=O)NC3(CCOc4ccccc43)C2=O)c(F)c1", "note": "(stereo unspecified)", "activity change, negative = inhibition": "inactive: 5.8%"}
{"smiles": "O=C(NNc1nc(-c2ccccc2)cs1)c1cccs1", "activity change, negative = inhibition": "inactive: -0.0105%"}
{"smiles": "CC(C)CCn1c(=O)c2sccc2n2c(CCCC(=O)N3CCC(N4CCCCC4)CC3)nnc12", "Potency": "inconclusive: 12.6 µM [inhibitor, single point]"}
{"smiles": "C=CCNC(=O)/C(C#N)=C/c1ccccc1OCc1ccc(C(=O)OC)cc1", "Potency": "inconclusive: 10 µM [inhibitor, single point]"}
{"smiles": "CC(c1ccccc1)c1nnc(NC(=O)c2ccc3c(c2)OCO3)s1", "note": "(stereo unspecified)", "Potency": "inconclusive: 6.31 µM [inhibitor, partial curve, poor fit]"}
{"smiles": "O=c1c2ccccc2sc2ccc(NCCCN3CCOCC3)cc12", "Potency": "inconclusive: 11.2 µM [inhibitor, single point]"}
{"smiles": "c1ccc(-c2cnc(-c3ccccn3)nn2)cc1", "Potency": "active: 6.31 µM"}
{"smiles": "COc1ccccc1N1CCN(C(=O)c2onc(C)c2Cl)CC1", "Potency": "inconclusive: 12.6 µM [inhibitor, single point]"}
{"smiles": "CC(=O)NCc1ccc(-c2nc3ccccc3s2)cc1", "Potency": "inconclusive: 12.6 µM [inhibitor, partial curve, poor fit]"}
{"smiles": "CCN1CCCC1CNC(=O)C(=O)NCCc1ccc(OC)c(OC)c1", "note": "(stereo unspecified)", "activity change, negative = inhibition": "inactive: -2.62%"}
{"smiles": "O=C1C(Oc2ccccc2)C(c2ccc3c(c2)OCO3)N1CCc1ccc(F)cc1", "note": "(stereo unspecified)", "activity change, negative = inhibition": "inactive: 4.55%"}
{"smiles": "COc1cccc(NC(=O)N2CCCc3ccccc32)c1", "Potency": "inconclusive: 3.16 µM [inhibitor, full curve, poor fit]"}
{"smiles": "Cc1cccc(-c2nc(Nc3cccc(O)c3)c3ccccc3n2)c1", "activity change, negative = inhibition": "inactive: -6.95%"}
{"smiles": "Cc1c(Cl)cccc1NC(=O)Nc1ccccc1C(N)=O", "Potency": "inconclusive: 11.2 µM [inhibitor, partial curve, poor fit]"}
{"smiles": "CC(=O)Nc1ccc2nc3ccccc3nc2c1", "Potency": "inconclusive: 28.2 µM [inhibitor, single point]"}
{"smiles": "CCC1CCC(C(=O)NC(C(=O)Nc2ccc3c(c2)OCCO3)C(C)C)CC1", "note": "(stereo unspecified)", "activity change, negative = inhibition": "inactive: 3.33%"}
{"smiles": "CCN1CCN(Cc2ccc(NC(=O)c3ccc(C)c(NC(=O)c4cncc(-c5cccs5)c4)c3)cc2C(F)(F)F)CC1", "Potency": "active: 1 µM"}
{"smiles": "CC(C)OP(=O)(OC(C)C)/C(C=O)=N\\Nc1ccc([N+](=O)[O-])cc1", "Potency": "inconclusive: 11.2 µM [inhibitor, single point]"}
{"smiles": "COc1cc2nc(CN(C)Cc3ccc(C(C)(C)C)cc3)[nH]c(=O)c2cc1OC", "Potency": "active: 3.55 µM"}
{"smiles": "CN1CCN(c2ccc3c(c2)C2CC3CCN2C(=O)OCc2ccccc2)CC1", "note": "(stereo unspecified)", "Potency": "inconclusive: 28.2 µM [inhibitor, single point]"}
{"smiles": "Cc1onc(-c2ccccc2)c1C(=O)Nc1nnc(CC(C)C)s1", "activity change, negative = inhibition": "inactive: 2.76%"}
{"smiles": "O=[N+]([O-])c1ccc(O)c2ncccc12", "Potency": "inconclusive: 3.98 µM [inhibitor, partial curve, poor fit]"}
{"smiles": "CCN(CC)CCn1c2ccccc2c2nc3ccccc3nc21", "Potency": "active: 10 µM"}
{"smiles": "O=c1ccccn1CCOc1ccc(Cl)cc1", "Potency": "inconclusive: 12.6 µM [inhibitor, partial curve, poor fit]"}
{"smiles": "COc1cc(CNC(=O)CCCCCCC(C)C)ccc1O", "Potency": "inconclusive: 8.91 µM [inhibitor, partial curve, poor fit]"}
{"smiles": "CCOC(=O)c1c(CSC(=N)N)n(-c2ccc(C)cc2)c2cc(Br)c(OC(C)=O)cc12", "Potency": "inconclusive: 28.2 µM [inhibitor, single point]"}
{"smiles": "O=C(/C=C/c1ccc(Cl)cc1)NC(=S)Nc1ccccc1C(=O)O", "Potency": "inconclusive: 12.6 µM [inhibitor, single point]"}
{"smiles": "CCOC(=O)c1cnc2c(C)cccc2c1Nc1cccc(C(=O)O)c1", "activity change, negative = inhibition": "inactive: -3.94%"}
{"smiles": "CCOC(=O)c1ccc(NC(=O)c2ccco2)cc1", "Potency": "inconclusive: 31.6 µM [inhibitor, partial curve, poor fit]"}
{"smiles": "C[C@@H]1CC=C[C@H]2[C@H]1C(=O)N(Cc1ccccc1)[C@H]2c1ccc(-c2ccoc2)cc1F", "Potency": "inconclusive: 22.4 µM [inhibitor, single point]"}
{"smiles": "COc1ccc(-c2cc(C)no2)cc1S(=O)(=O)N1CCN(c2ccc([N+](=O)[O-])cc2)CC1", "activity change, negative = inhibition": "inactive: -13.6%"}
{"smiles": "COc1ccc(-c2cc(C#N)nc(Cl)n2)cc1", "activity change, negative = inhibition": "inactive: -8.85%"}
{"smiles": "CC1CCCCN1C(=O)COc1ccc(S(=O)(=O)N2CCCC2)cc1[N+](=O)[O-]", "note": "(stereo unspecified)", "Potency": "inconclusive: 2.24 µM [inhibitor, full curve, poor fit]"}
{"smiles": "CN(C(=O)c1ccco1)c1nc(-c2ccccc2)cs1", "Potency": "inconclusive: 14.1 µM [inhibitor, single point]"}
{"smiles": "CCOC(=O)N1CCN(C(=O)COc2cccc3c2CCN(Cc2ccccc2C)C3=O)CC1", "activity change, negative = inhibition": "inactive: -6.72%"}
{"smiles": "CS(=O)(=O)N1N=C(c2ccco2)CC1c1cccc([N+](=O)[O-])c1", "note": "(stereo unspecified)", "Potency": "inconclusive: 3.55 µM [inhibitor, full curve, poor fit]"}
{"smiles": "COc1ccc2c(c1)[C@H]1[C@H](CO2)[C@H](c2ccccc2)[C@]2(C)C(=O)Nc3cc(C)ccc3C(=O)N12", "Potency": "inconclusive: 6.31 µM [inhibitor, single point]"}
{"smiles": "COC(=O)C1=C(C)N(Cc2ccccc2)C(=NCC(C)C)N[C@H]1c1cccc(F)c1", "Potency": "inconclusive: 8.91 µM [inhibitor, partial curve, poor fit]"}
{"smiles": "Nc1nc(SCC(=O)c2c(N)n(Cc3ccccc3)c(=O)[nH]c2=O)n[nH]1", "activity change, negative = inhibition": "inactive: 3.56%"}
{"smiles": "CCOC(=O)c1cc(C#N)c(Oc2cccc(C(F)(F)F)c2)nc1-c1ccccc1", "activity change, negative = inhibition": "inactive: 4.28%"}
{"smiles": "Cc1ccc(NC(=O)c2ncn(CCCNCCCc3ccccc3)n2)cc1C", "Potency": "inconclusive: 12.6 µM [inhibitor, partial curve, poor fit]"}
{"smiles": "Cc1nc2c3ccccc3nc(NNC(=O)CCC(=O)N3CCN(c4ccccc4F)CC3)n2n1", "Potency": "inconclusive: 0.0126 µM [inhibitor, full curve, poor fit]"}
{"smiles": "O=S(=O)(c1ccc(Nc2ccc(-c3ccc4c(c3)OCCO4)nn2)cc1)N1CCCC1", "Potency": "inconclusive: 8.91 µM [inhibitor, single point]"}
{"smiles": "CC(=O)Nc1ccc(S(=O)(=O)N2CCCc3ccccc32)cc1", "Potency": "inconclusive: 3.16 µM [inhibitor, partial curve, poor fit]"}
{"smiles": "COc1ccc(/C=C/C(=O)c2ccc3c(c2)OCO3)c(OC)c1", "Potency": "inconclusive: 11.2 µM [inhibitor, single point]"}
{"smiles": "COCCn1c(SCc2ccc(F)cc2)nc2c1c(=O)[nH]c(=O)n2C", "Potency": "inconclusive: 28.2 µM [inhibitor, single point]"}
{"smiles": "NS(=O)(=O)c1cccc(NC(=O)CC23CC4CC(C2)CC(CC(=O)Nc2cccc(S(N)(=O)=O)c2)(C4)C3)c1", "Potency": "inconclusive: 6.31 µM [inhibitor, partial curve, poor fit]"}
{"smiles": "COc1ccc2c(c1)oc(=O)c1ccccc12", "Potency": "inconclusive: 10 µM [inhibitor, partial curve, poor fit]"}
{"smiles": "CC(=O)C(Cc1cccc(F)c1)(Cc1cccc(F)c1)C(C)=O", "Potency": "inconclusive: 3.55 µM [inhibitor, full curve, poor fit]"}
{"smiles": "COCCNC(=O)c1ccc2c3n(nc2c1)-c1ccccc1CO3", "Potency": "active: 3.98 µM"}
{"smiles": "COc1ccc(C(=O)NC(=S)N(C)C2CCCCC2)cc1Br", "Potency": "inconclusive: 11.2 µM [inhibitor, single point]"}
{"smiles": "CCc1ccc2nc(N(CCN(C)C)C(=O)/C=C/c3cccs3)sc2c1", "Potency": "inconclusive: 12.6 µM [inhibitor, single point]"}
{"smiles": "O=C(Nc1cc(Cl)cc(Cl)c1)C1CC(=O)N(C2CCCC2)C1", "note": "(stereo unspecified)", "Potency": "inconclusive: 11.2 µM [inhibitor, single point]"}
{"smiles": "Cc1ccc(S(=O)(=O)Nc2nc3ccccc3nc2NCc2ccco2)cc1", "Potency": "inconclusive: 3.16 µM [inhibitor, partial curve]"}
